Measurements from article PMC7819943, “Rice protein-binding microarrays: a tool to detect cis-acting elements near promoter regions in rice”.
This is one part of the list.

Sequences of proteins named here, by UniProt entry; tags and fusion partners are left off.
UniProt Q0JBA9, entry or part of it: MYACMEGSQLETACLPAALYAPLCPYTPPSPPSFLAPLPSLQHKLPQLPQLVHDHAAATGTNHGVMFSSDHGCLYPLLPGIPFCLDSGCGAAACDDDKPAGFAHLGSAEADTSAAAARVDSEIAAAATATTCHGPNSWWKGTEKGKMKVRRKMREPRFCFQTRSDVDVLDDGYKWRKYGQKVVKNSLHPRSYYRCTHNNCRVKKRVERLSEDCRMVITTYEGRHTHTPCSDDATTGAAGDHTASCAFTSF

What follows are sequences tested against OsWRKY34 (Oryza sativa, UniProt Q0JBA9 1-250) (assay: protein-binding microarray (RPBM); PBS, 2% BSA, 51.3 ng/ul salmon testes DNA, 50 uM zinc acetate, 200 nM TF, 25 C, 1 h; high values mean tight binding). Settings: protein: recombinant; tags: N-terminal polyhistidine and DsRed monomer fusion (pET32a); label: CyDye5-dUTP incorporated in the synthesized complementary strand; 3' TTTTT single-stranded linker to array surface; dsDNA, one strand shown.
Method in brief: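 Polyhistidine-tagged DsRed fusions of transcription factors, joined at the N-terminus, were expressed in E. coli BL21-CodonPlus and isolated on Ni–NTA. They were incubated at 200 nM for 1 h at 25 °C on a custom Agilent array, double-stranded and BSA-blocked, in PBS with 2% BSA, salmon testes DNA and 50 µM zinc acetate. The binding signal is per-feature fluorescence intensity (arbitrary units) read on an Axon 4000B scanner after washing.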

Sequence	binding signal
TTTTTTCCTCTGCTGCCAACAGTGATGCTTTTGTTCCACCCGGAGTCACCTAGTGCAG	8790 fluorescence intensity (a.u.)
ACAGCTTAAAATTTCCTCCTCCGCCCAAAAACCCTCTCGACGGAGTCACCTAGTGCAG	24300 fluorescence intensity (a.u.)
ATTCGAGATCAGCTTTCTCTTCTATTTTGCTACTAGTTCTCGGAGTCACCTAGTGCAG	13000 fluorescence intensity (a.u.)
GGTCTAAGGTCTCTCTGACTGATTGGTTTTGCTTCGCTCTCGGAGTCACCTAGTGCAG	8730 fluorescence intensity (a.u.)
ACTGAATTCTACTCCATTCTTTCTCTCTCCACTTGTTGCTCGGAGTCACCTAGTGCAG	11200 fluorescence intensity (a.u.)
TCGGTGGGTTTGGTGGGAAATTGAGTTCGTGGACTTCATGCGGAGTCACCTAGTGCAG	8150 fluorescence intensity (a.u.)
TCCTCGCTATCTTCTTCTGCCACCACCGCCCATCCTCTCACGGAGTCACCTAGTGCAG	9500 fluorescence intensity (a.u.)
TTCATGGAACATTCACGTGGATCATTCTCTCTCTCTCTCTCGGAGTCACCTAGTGCAG	8100 fluorescence intensity (a.u.)
GTTGGTCTTCATAGACATTTAATCCTGCATATTGACATTTCGGAGTCACCTAGTGCAG	8150 fluorescence intensity (a.u.)
CGATTTGTTTGTTTCGCCCCTACCAGTTCTGCAGTACTGCCGGAGTCACCTAGTGCAG	8560 fluorescence intensity (a.u.)
TATATATATTTTGTTCCAATCACATTTCACATACCACAGTCGGAGTCACCTAGTGCAG	9520 fluorescence intensity (a.u.)
TGACTTTCGAGATATTTTTGACAAATCGTTTTATATTTTTCGGAGTCACCTAGTGCAG	8400 fluorescence intensity (a.u.)
CCCTTTTTTTTTGTGTGTGCGGTGCTTTATATACAGTTCACGGAGTCACCTAGTGCAG	9510 fluorescence intensity (a.u.)
CTAGCTGAAGACTTGTGCATGCAGTTTACACCTTTTATCTCGGAGTCACCTAGTGCAG	9280 fluorescence intensity (a.u.)
GCCTTTTTAAATTTTTTTATCACATCAAAACTTTTTTATACGGAGTCACCTAGTGCAG	8370 fluorescence intensity (a.u.)
CATATGTGCCGTTCCCCGTGTATTTGGCCCAATCCCTCCCCGGAGTCACCTAGTGCAG	8970 fluorescence intensity (a.u.)
TTTCTCACCTACTACTTTCGCTGGCCGGTTATACGAAACACGGAGTCACCTAGTGCAG	8320 fluorescence intensity (a.u.)
TTTTTTTTTTCCTGTCTTCTTCCTTCTTTCTCCCGTCTCTCGGAGTCACCTAGTGCAG	9230 fluorescence intensity (a.u.)
ACTCCAGTCGCCGGCTCGCCGCACACCATCGCCCATCAGACGGAGTCACCTAGTGCAG	9820 fluorescence intensity (a.u.)
ATGGGGTATTTAGGATGGGCAATATTTTGGTAGTGAGGAGCGGAGTCACCTAGTGCAG	9430 fluorescence intensity (a.u.)
CCCCACCGTCTCATCCCAGCTCAGCTCAGCTCTGCCTCCGCGGAGTCACCTAGTGCAG	9660 fluorescence intensity (a.u.)
CTTTTCTCTCTCCAGATATCTCTCTCATACTATTTAATAACGGAGTCACCTAGTGCAG	8070 fluorescence intensity (a.u.)
CGTTCCCGGCCTCGAGCTGCTCTCCCGTCTTTACAATCCACGGAGTCACCTAGTGCAG	8510 fluorescence intensity (a.u.)
TTCCTTTTTTCCCGCCCGTTCCTTTTTTGTTTGTTATGTTCGGAGTCACCTAGTGCAG	15700 fluorescence intensity (a.u.)
GGAGGAGAGCTTGGTGGTGCGCTGATCGGCGGATGCGGGGCGGAGTCACCTAGTGCAG	8490 fluorescence intensity (a.u.)
TAACTGACATGTGGGCCCCATTATTTTTAGATTTTTTTTTCGGAGTCACCTAGTGCAG	9130 fluorescence intensity (a.u.)
CTCTATACCCCGCCAGATCCACTCCACGGCCCCACCCCAACGGAGTCACCTAGTGCAG	9080 fluorescence intensity (a.u.)

Laid out differently: results already given.

| Sequence | binding signal |
| --- | --- |
| TCGGTGGGTTTGGTGGGAAATTGAGTTCGTGGACTTCATGCGGAGTCACCTAGTGCAG | 8150 fluorescence intensity (a.u.) |
| TCCTCGCTATCTTCTTCTGCCACCACCGCCCATCCTCTCACGGAGTCACCTAGTGCAG | 9500 fluorescence intensity (a.u.) |
| TTCATGGAACATTCACGTGGATCATTCTCTCTCTCTCTCTCGGAGTCACCTAGTGCAG | 8100 fluorescence intensity (a.u.) |
| GTTGGTCTTCATAGACATTTAATCCTGCATATTGACATTTCGGAGTCACCTAGTGCAG | 8150 fluorescence intensity (a.u.) |
| CGATTTGTTTGTTTCGCCCCTACCAGTTCTGCAGTACTGCCGGAGTCACCTAGTGCAG | 8560 fluorescence intensity (a.u.) |
| TATATATATTTTGTTCCAATCACATTTCACATACCACAGTCGGAGTCACCTAGTGCAG | 9520 fluorescence intensity (a.u.) |
| TGACTTTCGAGATATTTTTGACAAATCGTTTTATATTTTTCGGAGTCACCTAGTGCAG | 8400 fluorescence intensity (a.u.) |
| CCCTTTTTTTTTGTGTGTGCGGTGCTTTATATACAGTTCACGGAGTCACCTAGTGCAG | 9510 fluorescence intensity (a.u.) |
| CTAGCTGAAGACTTGTGCATGCAGTTTACACCTTTTATCTCGGAGTCACCTAGTGCAG | 9280 fluorescence intensity (a.u.) |
| GCCTTTTTAAATTTTTTTATCACATCAAAACTTTTTTATACGGAGTCACCTAGTGCAG | 8370 fluorescence intensity (a.u.) |
| CATATGTGCCGTTCCCCGTGTATTTGGCCCAATCCCTCCCCGGAGTCACCTAGTGCAG | 8970 fluorescence intensity (a.u.) |
| TTTCTCACCTACTACTTTCGCTGGCCGGTTATACGAAACACGGAGTCACCTAGTGCAG | 8320 fluorescence intensity (a.u.) |
| TTTTTTTTTTCCTGTCTTCTTCCTTCTTTCTCCCGTCTCTCGGAGTCACCTAGTGCAG | 9230 fluorescence intensity (a.u.) |
| ACTCCAGTCGCCGGCTCGCCGCACACCATCGCCCATCAGACGGAGTCACCTAGTGCAG | 9820 fluorescence intensity (a.u.) |
| ATGGGGTATTTAGGATGGGCAATATTTTGGTAGTGAGGAGCGGAGTCACCTAGTGCAG | 9430 fluorescence intensity (a.u.) |
| CCCCACCGTCTCATCCCAGCTCAGCTCAGCTCTGCCTCCGCGGAGTCACCTAGTGCAG | 9660 fluorescence intensity (a.u.) |

Carrying on:

Sequence	binding signal
TTTGCTCATCTTACACCAGGCGAATTTCCACAGCTATTTGCGGAGTCACCTAGTGCAG	8150 fluorescence intensity (a.u.)
ATTGTTAGGTCGTTGGTTCATAAAGGTTTTTGATCTGTTACGGAGTCACCTAGTGCAG	8300 fluorescence intensity (a.u.)
TCCTCGCCGTCCAACTCGCCCAATAAACCGGTCTATCACCCGGAGTCACCTAGTGCAG	8690 fluorescence intensity (a.u.)
ATACGCGGACATATTTACCAACCTACACCTAGCACCACTCCGGAGTCACCTAGTGCAG	9380 fluorescence intensity (a.u.)
TGCTGTCGTATACTAGAAGCTGATGCTTTTCTTGCTTAGTCGGAGTCACCTAGTGCAG	8940 fluorescence intensity (a.u.)
CACTGAAAATTAATCTCGTTGTCTGTCTTCAACAAATTAACGGAGTCACCTAGTGCAG	8030 fluorescence intensity (a.u.)
GGATACGGCACCTTTGCGAGCTGCGTCGACCGCTCCGCCGCGGAGTCACCTAGTGCAG	9650 fluorescence intensity (a.u.)
GTCTCGTATTCGCTCCGTTTCTGTATTCGATAATATTCGACGGAGTCACCTAGTGCAG	10100 fluorescence intensity (a.u.)
GTGTTTGTTTTCTTTGTATATCTGTTCAAATTTTGTGAACCGGAGTCACCTAGTGCAG	14300 fluorescence intensity (a.u.)
ACTACTAGTAGTCAGTCTGGCAAGTCTATATTATCATCTTCGGAGTCACCTAGTGCAG	9670 fluorescence intensity (a.u.)
CCACCATCCCAGTTTCACTTGTCTGATCTAATCTAAACGGCGGAGTCACCTAGTGCAG	8120 fluorescence intensity (a.u.)
GTTTCAACATGTTAATTTATTAGATTATCTGATTTTTATACGGAGTCACCTAGTGCAG	8660 fluorescence intensity (a.u.)
GTAAGGTCGTAGCTCAATTCACAATCCATGTTTTCTTCTCCGGAGTCACCTAGTGCAG	8890 fluorescence intensity (a.u.)
CCTCGTTTTCCGCGCGCATGCTTTTCAAACTGCTAACGGTCGGAGTCACCTAGTGCAG	10100 fluorescence intensity (a.u.)
TGCCCATCTCCTCTCGCTACCCTCATCCGCGCCGCGCTCTCGGAGTCACCTAGTGCAG	9090 fluorescence intensity (a.u.)
TGCTTAGTTAGATCTTGTGTTTGGAGCGCCATTTTGTTTACGGAGTCACCTAGTGCAG	8580 fluorescence intensity (a.u.)
TACTCCTATATATATATGTACCCATTTGAACTAGATTTCTCGGAGTCACCTAGTGCAG	9300 fluorescence intensity (a.u.)
ATGCTCAATTCTAAACATTCCTGTAGATCCTTGAGTGATTCGGAGTCACCTAGTGCAG	9080 fluorescence intensity (a.u.)
GCTGGCTGGCGCCCGTGGTTTTTTCTCTCCTGTTTTGGGACGGAGTCACCTAGTGCAG	8780 fluorescence intensity (a.u.)
ATCGCTCTCACGCGCTGCCGCCCCTCGCCAACCACGACCTCGGAGTCACCTAGTGCAG	8640 fluorescence intensity (a.u.)
CACAGCTGTTGTCGCGTCGACGCGCCGTACCTATCGAGACCGGAGTCACCTAGTGCAG	8550 fluorescence intensity (a.u.)
TGCATAATGCATGCGCGCGGTACTATTTATTCAACATTTCCGGAGTCACCTAGTGCAG	10700 fluorescence intensity (a.u.)
CCCCGGACTCCGTTCGCGACCTCGCCTCCTCCCTCCTCACCGGAGTCACCTAGTGCAG	8050 fluorescence intensity (a.u.)
TGGGGAGGAGGGGTGGAACGGGCGTGGAGGGACCTAATTGCGGAGTCACCTAGTGCAG	8950 fluorescence intensity (a.u.)
CACTGCTCTTCTCTTTCTTCCTTTCTCTTGAAATATATAGCGGAGTCACCTAGTGCAG	9970 fluorescence intensity (a.u.)
ACGGCCCATCATCCCACACTTGCCAGCCCATGAACTCAGCCGGAGTCACCTAGTGCAG	8330 fluorescence intensity (a.u.)
TTTTTTTGGTTTTTTTAGTTGAGATTTGGTCAGGGGCAAACGGAGTCACCTAGTGCAG	8590 fluorescence intensity (a.u.)
